Taken from: PubChem BioAssay AID1159584 (Peter MacCallum Cancer Centre, 2016)
In all, the deposit lists about 18,000 reagents; shown is an unselected part. Further read-outs or replicates are left out here. Not given: the amount of reagent, the time to read-out.

Assay: 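Knock-downs that harm CDH1-null cells more than parental MCF10A cells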 (primary screen)
System: human MCF10A breast epithelial cells, parental and CDH1-null
Knock-down reagent: siRNA against human genes
Read-out: 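ATP luminescence (CellTiter-Glo) viability per line relative to mean mock wells over all plates, and the ratio of CDH1-null to parental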
Scale: CDH1-null / parental viability ratio: higher = CDH1-null cells survive relatively better than parental

Against CREB3L1, the entry reads CDH1-null / parental viability ratio 0.82. With knock-down of SERPINA9, the record shows CDH1-null / parental viability ratio 1.12. With knock-down of IFNA17, the record shows CDH1-null / parental viability ratio 1.07. For USHBP1, the entry reads CDH1-null / parental viability ratio 1.11. Silencing of SDR9C7 gave: CDH1-null / parental viability ratio 0.82. For TEX13A, the entry reads CDH1-null / parental viability ratio 1.

Knock-down of TAFA2 resulted in: CDH1-null / parental viability ratio 1.34. After knock-down of STK11IP, the screen gave CDH1-null / parental viability ratio 0.99. Against VASH2, the values are CDH1-null / parental viability ratio 0.76. ZDHHC19 scored CDH1-null / parental viability ratio 1.04. Depletion of PEX12 resulted in: CDH1-null / parental viability ratio 0.97. Against RHBDD3 the deposit lists CDH1-null / parental viability ratio 0.77.

Against CFAP53 the deposit lists CDH1-null / parental viability ratio 1.13. Depletion of IL31 resulted in: CDH1-null / parental viability ratio 1.08. TMEM204 scored CDH1-null / parental viability ratio 1.05. Against TXNDC15, the values are CDH1-null / parental viability ratio 0.71. With knock-down of HLCS, the screen gave CDH1-null / parental viability ratio 0.99. For POC1B the deposit lists CDH1-null / parental viability ratio 1.14.

For CLDN6 the deposit lists CDH1-null / parental viability ratio 1.02. ZCCHC2 showed CDH1-null / parental viability ratio 1. For MECR, the values are CDH1-null / parental viability ratio 1.07.

In a second layout: entries from further up
IFNA17
- CDH1-null / parental viability ratio: 1.07

USHBP1
- CDH1-null / parental viability ratio: 1.11

SDR9C7
- CDH1-null / parental viability ratio: 0.82

TEX13A
- CDH1-null / parental viability ratio: 1

Continued.
After knock-down of KLRC2 the results were CDH1-null / parental viability ratio 1.03. Silencing of GCFC2 resulted in: CDH1-null / parental viability ratio 1.09. With knock-down of SIM1 the results were CDH1-null / parental viability ratio 1.03. HIC1 scored CDH1-null / parental viability ratio 0.63. Against TYW3, the values are CDH1-null / parental viability ratio 0.94. Against KLK8, the values are CDH1-null / parental viability ratio 1.

Against SNRNP40, the values are CDH1-null / parental viability ratio 1.1. Silencing of CSNK2A2 gave: CDH1-null / parental viability ratio 0.91. Knock-down of SRSF5 resulted in: CDH1-null / parental viability ratio 0.97. TDRD1 scored CDH1-null / parental viability ratio 1.31. After knock-down of TSGA13, the screen gave CDH1-null / parental viability ratio 0.89. Against C2orf15, the values are CDH1-null / parental viability ratio 0.97.

KRTAP10-5 scored CDH1-null / parental viability ratio 0.98. SGCD scored CDH1-null / parental viability ratio 1.51.
